The text below walks through data of article PMC11633172.

Assay [1] has as its target T1, GST-tagged full-length EIN_066100 (Entamoeba invadens).
T1 sequence: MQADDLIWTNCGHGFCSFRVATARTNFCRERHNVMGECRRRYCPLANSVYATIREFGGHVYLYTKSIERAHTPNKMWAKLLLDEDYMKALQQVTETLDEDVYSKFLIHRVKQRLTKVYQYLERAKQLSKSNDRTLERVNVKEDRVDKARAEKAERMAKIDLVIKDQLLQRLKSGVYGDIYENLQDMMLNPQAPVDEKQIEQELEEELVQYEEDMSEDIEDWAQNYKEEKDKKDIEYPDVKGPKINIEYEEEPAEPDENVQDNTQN
Briefly: pull-down; GST-tagged bait from 250 µg bacterial lysate immobilised on glutathione beads and washed; 500 µg whole-cell amoebic lysate with Myc-tagged prey added, 1 h at 4°C; washed with IP-wash buffer; western blot with anti-Myc antibody; only the target purified. Background: Immunoblotting shows a protein as a band on a membrane.

Assay [2] addresses GST-EIN_085620∆C (Entamoeba invadens). The description is as above.
The target of assay [3] is GST-EIN_085620∆N (Entamoeba invadens). Described as above.
Assay [4] concerns the target GST-tagged full-length EIN_085620 (Entamoeba invadens). The assay is described as above.
Assay [5] has the same target. Briefly: pull-down; GST-tagged EIN_085620 as bait on glutathione beads incubated with purified His-EIN_066100 as prey; western blot with anti-His-tag and anti-GST antibodies; both purified.

These are yes or no findings as the source states them, for the method shown. For part of these data: A result given as binding can be weak or reduced; the word gives no strength. Where a sequence is shown, tags or fusion partners need not be part of it. For part of these data: Binding seen in cells or lysates may run through a third protein.

Regarding “Myc-tagged ERM-BP (EIN_083100) (Entamoeba invadens)”, the binding entry in assay [1] is recorded as “no binding”.
The same measure, in the same setting: the value for “Myc-tagged EIN_085620 (Entamoeba invadens)” was “binds weakly”.

B1: Myc-tagged EIN_066100 (protein, UniProt A0A0A1TXQ0 1-265)
chain: T1 sequence
Take B1: the results for the binding entry in assay [2], in assay [3] and in assay [4] were “binds”, “no binding” and “binds”, respectively.

B2: His-EIN_066100 FL (protein, UniProt A0A0A1TXQ0 1-265)
chain: T1 sequence
In the case of B2, the binding result in assay [5] is “binds”.
